Experimental data taken from article PMC7819943, “Rice protein-binding microarrays: a tool to detect cis-acting elements near promoter regions in rice”.
Some of the results follow.

Protein sequences, listed by entry. Tags and fused reporters are not part of them.
UniProt Q0JBA9, entry or part of it: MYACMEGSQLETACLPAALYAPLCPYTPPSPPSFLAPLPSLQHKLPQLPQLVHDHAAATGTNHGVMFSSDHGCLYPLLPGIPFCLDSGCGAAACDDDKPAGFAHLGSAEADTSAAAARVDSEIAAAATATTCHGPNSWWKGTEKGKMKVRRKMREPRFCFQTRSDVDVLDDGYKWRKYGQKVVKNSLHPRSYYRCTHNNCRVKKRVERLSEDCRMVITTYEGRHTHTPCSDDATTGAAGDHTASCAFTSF

The sequences below were run against OsWRKY34 (Oryza sativa, UniProt Q0JBA9 1-250) (assay: protein-binding microarray (RPBM); PBS, 2% BSA, 51.3 ng/ul salmon testes DNA, 50 uM zinc acetate, 200 nM TF, 25 C, 1 h; high values mean tight binding). Details: protein: recombinant; tags: N-terminal polyhistidine and DsRed monomer fusion (pET32a); label: CyDye5-dUTP incorporated in the synthesized complementary strand; 3' TTTTT single-stranded linker to array surface; dsDNA, one strand shown.
Method in brief: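 Transcription factors were each fused at the N-terminus to a polyhistidine tag plus DsRed and expressed in E. coli BL21-CodonPlus before Ni–NTA purification. Binding to a double-stranded custom Agilent array was carried out with 200 nM protein at 25 °C for 1 h in PBS, 2% BSA, salmon testes DNA and 50 µM zinc acetate. The binding signal is per-feature fluorescence intensity, in arbitrary units, on an Axon 4000B scanner.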

Row | Sequence | binding signal
1 | GCCGTGCTGCTCTCCTCCGGCGCCATGTTGCCCAACCGCCCGGAGTCACCTAGTGCAG | 8440 fluorescence intensity (a.u.)
2 | ATCACCGAATAACAATACAAATTGTTGATCATAGATCTTTCGGAGTCACCTAGTGCAG | 8470 fluorescence intensity (a.u.)
3 | ACAGTTGTGACAGTCATCACCTAGCAGAATTAATCTTGTCCGGAGTCACCTAGTGCAG | 8430 fluorescence intensity (a.u.)
4 | ACCCGGTGTCGCGGCCAACCCCACCGCCACCTCCATGCCCCGGAGTCACCTAGTGCAG | 11400 fluorescence intensity (a.u.)
5 | GCCGATGCTGCCGCCCCGCCTCCGCCGCCCTGCCGCCGGCCGGAGTCACCTAGTGCAG | 11700 fluorescence intensity (a.u.)
6 | ATATCTTGTCGCTTTCTCAATCAACAATTTGCGTTAACTTCGGAGTCACCTAGTGCAG | 11200 fluorescence intensity (a.u.)
7 | GTCTTCCTCGTCGTCTTGCAAGTCTGCTTCCACCTCTCTTCGGAGTCACCTAGTGCAG | 11800 fluorescence intensity (a.u.)
8 | AAACGCGTCCCCATCGATATTTTCTCTCTCTCTCTCTCTCCGGAGTCACCTAGTGCAG | 8110 fluorescence intensity (a.u.)
9 | CATTTCCAGCTCCATCCTGTTTGGCAATGGTTTTTCTCTCCGGAGTCACCTAGTGCAG | 11200 fluorescence intensity (a.u.)
10 | CTTTTTCCTATTTTCCAATTTGGTTGATTTTCCTATTTTTCGGAGTCACCTAGTGCAG | 9580 fluorescence intensity (a.u.)
11 | GGTTGATTTAATTCTGTATCTTTGATTTGATCTATAGCGTCGGAGTCACCTAGTGCAG | 11400 fluorescence intensity (a.u.)
12 | TCTTTCGTTCTCTCGGCTCTGTTTCCTTCTCTCATCTTTCCGGAGTCACCTAGTGCAG | 13200 fluorescence intensity (a.u.)
13 | CCATCTTGTTCTGACCTGTGCGCTTTTCTTTGAACCTGGCCGGAGTCACCTAGTGCAG | 10000 fluorescence intensity (a.u.)
14 | ATTCTATTCCTACATTTGTTCCTATTGCTGTGTTTTCTCACGGAGTCACCTAGTGCAG | 13600 fluorescence intensity (a.u.)
15 | GTCGGCGTCGGCGTCGGCGTCGGCGGGCGGGAGGCGGGAGCGGAGTCACCTAGTGCAG | 8650 fluorescence intensity (a.u.)
16 | GCCACAAGCTCTAATTTTGGTTAATTAATCAATTTCCTATCGGAGTCACCTAGTGCAG | 8400 fluorescence intensity (a.u.)
17 | GAGCTCCAAAGCTACGGTTTTTTTTTCTCTTTCTTTCTCACGGAGTCACCTAGTGCAG | 9080 fluorescence intensity (a.u.)
18 | CTCACACACACACTCTGCACTGCAGAAACCGGCTCGACCACGGAGTCACCTAGTGCAG | 11400 fluorescence intensity (a.u.)
19 | CTCGGCAACAAATTTTTCATCGGTTTGTCTGTGTTTAGTTCGGAGTCACCTAGTGCAG | 11100 fluorescence intensity (a.u.)
20 | TTTGCTAATACAATATTCTCGGTCAACATGCTGCATATCGCGGAGTCACCTAGTGCAG | 10200 fluorescence intensity (a.u.)
21 | TTTCTCCTTGGAAAGTGGGCGGGCTGGCATTGCATTGCCTCGGAGTCACCTAGTGCAG | 12800 fluorescence intensity (a.u.)

Laid out differently: results already given
Row	Sequence	binding signal
18	CTCACACACACACTCTGCACTGCAGAAACCGGCTCGACCACGGAGTCACCTAGTGCAG	11400 fluorescence intensity (a.u.)
19	CTCGGCAACAAATTTTTCATCGGTTTGTCTGTGTTTAGTTCGGAGTCACCTAGTGCAG	11100 fluorescence intensity (a.u.)

The list goes on.

Row | Sequence | binding signal
22 | TACTCTACTGCCTTAACTATTTTTCCTTTTGTATTATACTCGGAGTCACCTAGTGCAG | 8470 fluorescence intensity (a.u.)
23 | TTGTCCACTTGGCCCGTAAGGCGTAAGCAGCGACACCCGCCGGAGTCACCTAGTGCAG | 8410 fluorescence intensity (a.u.)
24 | ATGTATTGCATAACTGTGTTGACTATTGTTGACTTGTGTACGGAGTCACCTAGTGCAG | 11000 fluorescence intensity (a.u.)
25 | CTCGTATTGGGTTGTTATATGGAAACTTCTTTCAATATTGCGGAGTCACCTAGTGCAG | 8410 fluorescence intensity (a.u.)
26 | AGTGCGCTCATGTGACCTCTAATTTCTTGCTTTACTGCCTCGGAGTCACCTAGTGCAG | 10000 fluorescence intensity (a.u.)
27 | GCCTCACCCTCACCGCCACCCCGCCGCCGCCGATCTACACCGGAGTCACCTAGTGCAG | 13000 fluorescence intensity (a.u.)
28 | CCCTAATCGACGGTTGGAGTTCTGCTGCCGCTCACTTAACCGGAGTCACCTAGTGCAG | 9270 fluorescence intensity (a.u.)
29 | GGCCCAACACATCAGGCCTTGGACTCGTCTCTTTCCTCGGCGGAGTCACCTAGTGCAG | 8400 fluorescence intensity (a.u.)
30 | CCCTTGAGTTTTTATTTTGATCTCTTCTATCCCTATTCCGCGGAGTCACCTAGTGCAG | 12600 fluorescence intensity (a.u.)
31 | AAATCCGTGCTGCTTCTGATCCTTGCAGCCACTTTGCTTCCGGAGTCACCTAGTGCAG | 8620 fluorescence intensity (a.u.)
32 | TAACTATTCTACCTAATTACTTAACCCCTAAACTCTTTCACGGAGTCACCTAGTGCAG | 8060 fluorescence intensity (a.u.)
33 | AGTCTATATCACTCATTCAATTCCTACGTTTTTCAAATGGCGGAGTCACCTAGTGCAG | 9010 fluorescence intensity (a.u.)
34 | TTTACTGGTTCTCTGTGTTGTTCATTATTTTTTCATCTTTCGGAGTCACCTAGTGCAG | 12000 fluorescence intensity (a.u.)
35 | GATGCCTGCCAATCTGCCATGCCATTATATCTGCAGTTCTCGGAGTCACCTAGTGCAG | 12000 fluorescence intensity (a.u.)
36 | CATCGTCGCCCGTAGTTGTTTTATTTCTCCCGTTTTCTTCCGGAGTCACCTAGTGCAG | 13500 fluorescence intensity (a.u.)
37 | GGTTGGTAGCTTGATCAATATAGGCCTACTAAATTTTTCCCGGAGTCACCTAGTGCAG | 9100 fluorescence intensity (a.u.)
38 | ATATACTCCCTCCTTCCCTAAATGTTTGACGCCGTTGACTCGGAGTCACCTAGTGCAG | 11400 fluorescence intensity (a.u.)
39 | TACCTTGCATTGTTATTGAATATTTGGTTTATGCTTTACTCGGAGTCACCTAGTGCAG | 8680 fluorescence intensity (a.u.)
40 | CCTTACGAATACACACACGCTACCGCCAAATTTTGCCCACCGGAGTCACCTAGTGCAG | 8330 fluorescence intensity (a.u.)
41 | ATCTAGGTTCTTTCATCTTTTTTTTTCTTTTTTTGTTAAACGGAGTCACCTAGTGCAG | 10800 fluorescence intensity (a.u.)
42 | ATCGCCATAACACGGTCTTTCACTACAACAGATTGGTAACCGGAGTCACCTAGTGCAG | 8640 fluorescence intensity (a.u.)
